From paper doi:10.1101/2024.09.24.614577 (bioRxiv, 2024)
Where two headings read alike, the source gives them in different places. No constants are given. Whether binding was seen depends on the method and setting. Some results given as binding are weak or reduced against the parent protein; the word gives no strength. Where a sequence is shown, tags or fusion partners need not be part of it.

What was measured:
Assay in all cases: SEC
[1] = biological target: human GPR155 (residues 1-870) with C-terminal eGFP and Strep-tag (human) (UniProt Q7Z3F1)
[2] = biological target: human GPR155 (residues 1-870) with C-terminal eGFP and Strep-tag (human) (UniProt Q7Z3F1); remark: listed apart in the source
[3] = biological target: human GPR155 (residues 1-870), construct without the eGFP tag (human) (UniProt Q7Z3F1)

| Binder | binding [1] | binding [2] | binding [3] |
| --- | --- | --- | --- |
| human GPR155 (residues 1-870) with C-terminal eGFP and Strep-tag (receptor, UniProt Q7Z3F1 1-870) MNSNLPAENLTIAVNMTKTLPTAVTHGFNSTNDPPSMSITRLFPALLECFGIVLCGYIAGRANVITSTQAKGLGNFVSRFALPALLFKNMVVLNFSNVDWSFLYSILIAKASVFFIVCVLTLLVASPDSRFSKAGLFPIFATQSNDFALGYPIVEALYQTTYPEYLQYIYLVAPISLMMLNPIGFIFCEIQKWKDTQNASQNKIKIVGLGLLRVLQNPIVFMVFIGIAFNFILDRKVPVYVENFLDGLGNSFSGSALFYLGLTMVGKIKRLKKSAFVVLILLITAKLLVLPLLCREMVELLDKGDSVVNHTSLSNYAFLYGVFPVAPGVAIFATQFNMEVEIITSGMVISTFVSAPIMYVSAWLLTFPTMDPKPLAYAIQNVSFDISIVSLISLIWSLAILLLSKKYKQLPHMLTTNLLIAQSIVCAGMMIWNFVKEKNFVGQILVFVLLYSSLYSTYLWTGLLAISLFLLKKRERVQIPVGIIIISGWGIPALLVGVLLITGKHNGDSIDSAFFYGKEQMITTAVTLFCSILIAGISLMCMNQTAQAGSYEGFDQSQSHKVVEPGNTAFEESPAPVNEPELFTSSIPETSCCSCSMGNGELHCPSIEPIANTSTSEPVIPSFEKNNHCVSRCNSQSCILAQEEEQYLQSGDQQLTRHVLLCLLLIIGLFANLSSCLWWLFNQEPGRLYVELQFFCAVFNFGQGFISFGIFGLDKHLIILPFKRRLEFLWNNKDTAENRDSPVSEEIKMTCQQFIHYHRDLCIRNIVKERRCGAKTSAGTFCGCDLVSWLIEVGLASDRGEAVIYGDRLVQGGVIQHITNEYEFRDEYLFYRFLQKSPEQSPPAINANTLQQERYKEIEHSSPPSHSPKT | binds weakly | binds |  |
| human GPR155 (residues 1-870), construct without the eGFP tag (receptor, UniProt Q7Z3F1 1-870, looked up) MNSNLPAENLTIAVNMTKTLPTAVTHGFNSTNDPPSMSITRLFPALLECFGIVLCGYIAGRANVITSTQAKGLGNFVSRFALPALLFKNMVVLNFSNVDWSFLYSILIAKASVFFIVCVLTLLVASPDSRFSKAGLFPIFATQSNDFALGYPIVEALYQTTYPEYLQYIYLVAPISLMMLNPIGFIFCEIQKWKDTQNASQNKIKIVGLGLLRVLQNPIVFMVFIGIAFNFILDRKVPVYVENFLDGLGNSFSGSALFYLGLTMVGKIKRLKKSAFVVLILLITAKLLVLPLLCREMVELLDKGDSVVNHTSLSNYAFLYGVFPVAPGVAIFATQFNMEVEIITSGMVISTFVSAPIMYVSAWLLTFPTMDPKPLAYAIQNVSFDISIVSLISLIWSLAILLLSKKYKQLPHMLTTNLLIAQSIVCAGMMIWNFVKEKNFVGQILVFVLLYSSLYSTYLWTGLLAISLFLLKKRERVQIPVGIIIISGWGIPALLVGVLLITGKHNGDSIDSAFFYGKEQMITTAVTLFCSILIAGISLMCMNQTAQAGSYEGFDQSQSHKVVEPGNTAFEESPAPVNEPELFTSSIPETSCCSCSMGNGELHCPSIEPIANTSTSEPVIPSFEKNNHCVSRCNSQSCILAQEEEQYLQSGDQQLTRHVLLCLLLIIGLFANLSSCLWWLFNQEPGRLYVELQFFCAVFNFGQGFISFGIFGLDKHLIILPFKRRLEFLWNNKDTAENRDSPVSEEIKMTCQQFIHYHRDLCIRNIVKERRCGAKTSAGTFCGCDLVSWLIEVGLASDRGEAVIYGDRLVQGGVIQHITNEYEFRDEYLFYRFLQKSPEQSPPAINANTLQQERYKEIEHSSPPSHSPKT |  |  | binds weakly |
